Laboratory results published in paper PMC11747444.

Protein sequences, listed by entry. Tags and fused reporters are not part of them.
UniProt P14635: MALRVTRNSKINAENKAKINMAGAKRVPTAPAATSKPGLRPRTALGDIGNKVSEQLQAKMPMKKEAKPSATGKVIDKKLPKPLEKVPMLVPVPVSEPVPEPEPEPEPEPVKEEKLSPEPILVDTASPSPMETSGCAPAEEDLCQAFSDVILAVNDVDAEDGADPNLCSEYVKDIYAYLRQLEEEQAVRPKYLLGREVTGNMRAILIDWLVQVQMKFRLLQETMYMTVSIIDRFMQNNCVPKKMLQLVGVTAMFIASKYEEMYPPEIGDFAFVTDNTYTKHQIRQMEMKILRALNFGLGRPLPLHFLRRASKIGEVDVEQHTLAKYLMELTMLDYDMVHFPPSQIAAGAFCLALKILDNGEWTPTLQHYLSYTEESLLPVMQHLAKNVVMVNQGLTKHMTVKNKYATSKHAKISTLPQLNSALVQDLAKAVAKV
UniProt O60566: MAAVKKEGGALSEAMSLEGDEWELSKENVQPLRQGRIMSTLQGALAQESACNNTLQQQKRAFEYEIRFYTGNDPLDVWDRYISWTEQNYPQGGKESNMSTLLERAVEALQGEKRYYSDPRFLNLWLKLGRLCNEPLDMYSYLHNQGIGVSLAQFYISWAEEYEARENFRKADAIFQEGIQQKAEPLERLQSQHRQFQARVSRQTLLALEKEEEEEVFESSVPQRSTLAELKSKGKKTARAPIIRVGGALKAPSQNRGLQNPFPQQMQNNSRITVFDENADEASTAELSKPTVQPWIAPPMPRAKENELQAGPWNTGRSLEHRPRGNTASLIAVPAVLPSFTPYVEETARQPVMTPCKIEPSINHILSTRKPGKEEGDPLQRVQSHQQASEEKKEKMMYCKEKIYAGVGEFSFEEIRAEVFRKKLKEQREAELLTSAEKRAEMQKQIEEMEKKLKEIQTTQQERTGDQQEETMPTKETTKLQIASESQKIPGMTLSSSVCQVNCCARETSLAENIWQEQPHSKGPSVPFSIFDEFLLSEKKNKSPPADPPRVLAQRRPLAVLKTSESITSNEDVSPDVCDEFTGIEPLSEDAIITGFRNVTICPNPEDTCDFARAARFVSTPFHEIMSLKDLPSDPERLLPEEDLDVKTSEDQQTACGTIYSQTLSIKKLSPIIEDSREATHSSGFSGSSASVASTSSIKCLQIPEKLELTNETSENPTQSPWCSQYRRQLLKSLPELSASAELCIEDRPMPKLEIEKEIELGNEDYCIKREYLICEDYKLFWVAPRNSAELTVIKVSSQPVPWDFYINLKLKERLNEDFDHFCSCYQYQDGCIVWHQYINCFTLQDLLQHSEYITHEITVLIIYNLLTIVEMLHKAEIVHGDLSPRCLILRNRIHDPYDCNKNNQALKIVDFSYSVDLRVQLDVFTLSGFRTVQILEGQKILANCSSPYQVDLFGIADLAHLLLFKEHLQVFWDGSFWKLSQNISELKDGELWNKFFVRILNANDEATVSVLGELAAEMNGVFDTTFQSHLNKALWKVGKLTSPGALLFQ
UniProt Q13257: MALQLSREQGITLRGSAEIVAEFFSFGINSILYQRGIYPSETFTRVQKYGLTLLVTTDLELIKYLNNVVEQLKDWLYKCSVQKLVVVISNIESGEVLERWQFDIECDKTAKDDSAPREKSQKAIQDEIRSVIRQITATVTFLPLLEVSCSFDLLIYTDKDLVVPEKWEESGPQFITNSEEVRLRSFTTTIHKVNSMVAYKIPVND
UniProt Q15154: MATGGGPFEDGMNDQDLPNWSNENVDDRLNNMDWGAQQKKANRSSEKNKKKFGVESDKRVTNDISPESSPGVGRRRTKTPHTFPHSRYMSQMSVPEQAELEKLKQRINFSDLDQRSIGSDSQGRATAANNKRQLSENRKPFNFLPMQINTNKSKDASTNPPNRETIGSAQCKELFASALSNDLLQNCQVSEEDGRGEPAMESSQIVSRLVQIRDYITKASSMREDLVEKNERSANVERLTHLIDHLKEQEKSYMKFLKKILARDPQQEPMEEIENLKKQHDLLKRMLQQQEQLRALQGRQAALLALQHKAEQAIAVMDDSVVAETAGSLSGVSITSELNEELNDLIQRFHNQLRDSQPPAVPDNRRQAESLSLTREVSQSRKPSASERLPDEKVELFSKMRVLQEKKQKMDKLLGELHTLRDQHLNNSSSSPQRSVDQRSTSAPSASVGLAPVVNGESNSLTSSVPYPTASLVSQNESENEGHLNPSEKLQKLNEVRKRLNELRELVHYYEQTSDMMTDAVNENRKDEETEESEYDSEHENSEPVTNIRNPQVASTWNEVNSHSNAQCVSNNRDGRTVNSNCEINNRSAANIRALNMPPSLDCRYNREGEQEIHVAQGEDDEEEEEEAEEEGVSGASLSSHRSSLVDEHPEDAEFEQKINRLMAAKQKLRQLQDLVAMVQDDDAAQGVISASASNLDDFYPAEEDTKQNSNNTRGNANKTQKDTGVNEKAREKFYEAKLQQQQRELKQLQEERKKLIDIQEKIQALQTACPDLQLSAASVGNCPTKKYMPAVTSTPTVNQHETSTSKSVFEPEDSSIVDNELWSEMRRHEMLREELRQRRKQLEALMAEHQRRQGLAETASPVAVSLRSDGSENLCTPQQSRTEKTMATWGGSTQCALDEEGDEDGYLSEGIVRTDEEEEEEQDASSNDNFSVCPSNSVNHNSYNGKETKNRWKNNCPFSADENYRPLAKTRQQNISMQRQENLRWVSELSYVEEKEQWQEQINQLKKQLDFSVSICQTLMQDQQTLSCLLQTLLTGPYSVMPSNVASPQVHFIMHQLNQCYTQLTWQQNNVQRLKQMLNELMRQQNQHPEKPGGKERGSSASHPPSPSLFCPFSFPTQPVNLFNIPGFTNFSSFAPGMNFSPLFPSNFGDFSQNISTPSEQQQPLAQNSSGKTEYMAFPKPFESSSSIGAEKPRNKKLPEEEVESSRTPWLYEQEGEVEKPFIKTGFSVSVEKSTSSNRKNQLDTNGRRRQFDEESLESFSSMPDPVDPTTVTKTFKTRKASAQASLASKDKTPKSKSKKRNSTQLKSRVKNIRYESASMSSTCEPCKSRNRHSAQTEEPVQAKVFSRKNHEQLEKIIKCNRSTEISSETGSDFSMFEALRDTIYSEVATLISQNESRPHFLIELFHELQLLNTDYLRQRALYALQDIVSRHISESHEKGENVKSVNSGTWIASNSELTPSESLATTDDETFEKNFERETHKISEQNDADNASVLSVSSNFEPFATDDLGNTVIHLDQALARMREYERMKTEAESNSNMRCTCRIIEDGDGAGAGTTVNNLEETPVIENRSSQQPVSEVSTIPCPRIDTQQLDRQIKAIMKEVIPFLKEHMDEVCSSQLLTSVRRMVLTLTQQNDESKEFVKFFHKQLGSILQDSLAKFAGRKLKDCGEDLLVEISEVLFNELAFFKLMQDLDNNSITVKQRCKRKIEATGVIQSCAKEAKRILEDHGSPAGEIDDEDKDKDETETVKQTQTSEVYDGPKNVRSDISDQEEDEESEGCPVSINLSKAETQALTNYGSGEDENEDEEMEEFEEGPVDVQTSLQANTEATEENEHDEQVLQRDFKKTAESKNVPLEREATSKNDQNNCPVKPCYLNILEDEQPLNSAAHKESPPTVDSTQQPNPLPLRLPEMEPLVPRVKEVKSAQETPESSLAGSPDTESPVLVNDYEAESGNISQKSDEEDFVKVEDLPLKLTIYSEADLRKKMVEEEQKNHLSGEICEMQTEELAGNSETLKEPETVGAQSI

The substances below were run against Flag-tagged wild-type cyclin B1 (human) (UniProt P14635) (assay: affinity purification with mass spectrometry; α-Flag IP from nocodazole-arrested HeLa cells, uninduced or expressing Flag-cyclin B1^wt or ^mut; in-gel digest, DIA mass spectrometry, three independent experiments).

binding	Substance
binds	budding uninhibited by bezimidazoles (BUB1B) (from UniProt O60566 1-1050)
binds	mitotic arrest deficient 2-like protein 1 (MAD2L1) (from UniProt Q13257 1-205)
binds	pericentriolar material 1 (PCM1) (from UniProt Q15154 1-2024)

These are yes or no findings as the source states them, for the method shown. In cells and extracts the contact can be indirect. Here binding means that the protein was enriched with, or labelled near, the bait; the list need not be complete.
